Experimental data as given in the supplement of paper PMC4604168 (melanoma cell lines).
The other results are listed elsewhere or left out. Single values are uncertain, as repeats are few or missing.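 Imaging used 1,536-well plates; nuclei positive for cleaved PARP by antibody were divided by total DNA-stained nuclei to yield the apoptosis fraction. Doses for screening kept most cells viable, and cell lines differ markedly in resting and induced cleaved-PARP levels.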

How the values were obtained:
Test in all cases: cleaved PARP positive nuclei fraction relative to DMSO control; melanoma cells; higher = more apoptosis
Conditions in all cases: library dose: low library concentration; 72 h
COLO792 = system: COLO792
COLO800 = system: COLO800
COLO829 = system: COLO829
G361 = system: G361
IPC-298 = system: IPC-298
IST-MEL1 = system: IST-MEL1
LB2518-MEL = system: LB2518-MEL
LOXIMVI = system: LOXIMVI
MEL-HO = system: MEL-HO
MZ2-MEL = system: MZ2-MEL
MeWo = system: MeWo
RPMI7951 = system: RPMI7951
RVH-421 = system: RVH-421
SkMel28 = system: SkMel28
SkMel2 = system: SkMel2
SkMel30 = system: SkMel30
SkMel5 = system: SkMel5
UACC257 = system: UACC257
UACC62 = system: UACC62

Row | Compound | cleaved PARP positive nuclei fraction (COLO792) | cleaved PARP positive nuclei fraction (COLO800) | cleaved PARP positive nuclei fraction (COLO829) | cleaved PARP positive nuclei fraction (G361) | cleaved PARP positive nuclei fraction (IPC-298) | cleaved PARP positive nuclei fraction (IST-MEL1) | cleaved PARP positive nuclei fraction (LB2518-MEL) | cleaved PARP positive nuclei fraction (LOXIMVI) | cleaved PARP positive nuclei fraction (MEL-HO) | cleaved PARP positive nuclei fraction (MZ2-MEL) | cleaved PARP positive nuclei fraction (MeWo) | cleaved PARP positive nuclei fraction (RPMI7951) | cleaved PARP positive nuclei fraction (RVH-421) | cleaved PARP positive nuclei fraction (SkMel28) | cleaved PARP positive nuclei fraction (SkMel2) | cleaved PARP positive nuclei fraction (SkMel30) | cleaved PARP positive nuclei fraction (SkMel5) | cleaved PARP positive nuclei fraction (UACC257) | cleaved PARP positive nuclei fraction (UACC62)
1 | Cn1nnc2c(C(N)=O)ncn2c1=O [temozolomide] + CC1(C)NC(=O)N(c2ccc([N+](=O)[O-])c(C(F)(F)F)c2)C1=O [nilutamide] (first compound 2 µM, partner dose 1 µM) | 104% | 63.6% | 87.1% | 156% | 131% | 131% | 91.5% | 97.5% | 139% | 54.3% | 155% | 127% | 143% | 104% | 73.3% | 73.6% | 146% | 76.7% | 149%
2 | O=C(CCCCCCC(=O)Nc1ccccc1)NO [vorinostat] + Cc1cc(N2CCOCC2)cc2[nH]c(-c3c(NC[C@@H](O)c4cccc(Cl)c4)cc[nH]c3=O)nc12 [BMS536924] (first compound 0.08 µM, partner dose 0.2 µM) | 114% | 289% | 156% | 101% | 22.8% | 97.3% | 169% | 116% | 108% | 178% | 97.4% | 112% | 141% | 90.5% | 64.7% | 79.2% | 61% | 61.4% | 53.6%
3 | COCC[n+]1c2c(n(Cc3cnccn3)c1C)C(=O)c1ccccc1C2=O + CC1(C)NC(=O)N(c2ccc([N+](=O)[O-])c(C(F)(F)F)c2)C1=O [nilutamide] (first compound 0.0004 µM, partner dose 1 µM) | 107% | 65.7% | 116% | 112% | 139% | 64.6% | 101% | 114% | 162% | 629% | 108% | 90.2% | 38.1% | 173% | 176% | 77% | 533% | 152% | 212%
4 | O=C(CCCCCCC(=O)Nc1ccccc1)NO [vorinostat] + Cn1cncc1[C@@](N)(c1ccc(Cl)cc1)c1ccc2c(c1)c(-c1cccc(Cl)c1)cc(=O)n2C [tipifarnib] (first compound 0.08 µM, partner dose 0.01 µM) | 111% | 87.5% | 85.4% | 54.8% | 45% | 54% | 109% | 150% | 80.4% | 95.9% | 428% | 108% | 151% | 69.5% | 237% | 244% | 156% | 127% | 292%
5 | Cc1nc(Nc2ncc(C(=O)Nc3c(C)cccc3Cl)s2)cc(N2CCN(CCO)CC2)n1 [dasatanib] + O=C(CCCCCCC(=O)Nc1ccccc1)NO [vorinostat] (first compound 0.004 µM, partner dose 0.08 µM) | 97.1% | 120% | 117% | 215% | 350% | 57.1% | 50.5% | 486% | 71.3% | 157% | 79.5% | 95.6% | 97.6% | 98.3% | 116% | 69.4% | 302% | 218% | 80.9%
6 | C[C@]1(c2nc3c(C(N)=O)cccc3[nH]2)CCCN1 [Veliparib] + C=CCn1c(=O)c2cnc(Nc3ccc(N4CCN(C)CC4)cc3)nc2n1-c1cccc(C(C)(C)O)n1 [MK1775] (first compound 1.4 µM, partner dose 0.02 µM) | 48.7% | 20.6% | 80.9% | 89.2% | 47.1% | 34.3% | 29.2% | 382% | 131% | 68.2% | 179% | 64.8% | 124% | 145% | 156% | 69.6% | 164% | 169% | 97.2%
7 | C#Cc1cccc(Nc2ncnc3cc(OCCOC)c(OCCOC)cc23)c1 [erlotinib] + NCC(=O)Nc1ccc(-n2nc(C(F)(F)F)cc2-c2ccc3c(ccc4ccccc43)c2)cc1 [OSU03012] (first compound 0.8 µM, partner dose 1 µM) | 58.3% | 144% | 58.2% | 83.4% | 108% | 212% | 152% | 15.8% | 139% | 129% | 167% | 192% | 62.6% | 64.2% | 115% | 99.9% | 72% | 45% | 54.5%
8 | C#Cc1cccc(Nc2ncnc3cc(OCCOC)c(OCCOC)cc23)c1 [erlotinib] + CN(C)S(=O)(=O)c1ccc2c(c1)/C(=C/c1cc3c([nH]1)CCCC3)C(=O)N2 [SU6656] (first compound 0.8 µM, partner dose 0.4 µM) | 107% | 30.1% | 80.1% | 89.7% | 32.7% | 96.5% | 174% | 20.8% | 71.3% | 131% | 158% | 46.6% | 324% | 125% | 98.4% | 209% | 93% | 125% | 68.1%
